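Assay of Toxoplasma gondii numbers, read through their beta-galactosidase reporter with a colour substrate. Tested at 50 µM. The record gives no direction; the compounds picked for IC50 retests had high values, so higher reads as fewer parasites. About 18,000 compounds were tested under these conditions; 0.94% (about 170) showed 50% or more at least once.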

Results are given as percent effect.
How 0% and 100% were set is not recorded. Most values in the screen are low, and negative values occur.
Compounds were drawn at random from those tested, without regard to their results.

Cc1csc(NC(=O)CSc2nccn2C)n1 gave 6.184%. CN(C)c1cc(CNC(=O)CCc2ccco2)ccn1 gave 19.9%. With CCS(=O)(=O)c1cccc(CN)c1 the screen gave 21.69%. Cc1n[nH]cc1CNCC(=O)NC(C)(C)C read -4.135%. Result for CCN(CC)Cc1ccccc1NCC(=O)N(C)C was -23.73%. With CCCNC(=O)CCn1nc(C)cc1C the screen gave 59.42%. For OCC(c1cccc(F)c1)N1CCNCC1 (stereo unspecified) the result was -2.556%. For CC(C)OCc1nnc(C(C)N)s1 (stereo unspecified) the result was -3.233%.

CCN1CCCC1CNC(=O)c1cccc(C)n1 (stereo unspecified) gave 18.77%. With CC(=O)N1CCN(c2ccc(CN)cc2)CC1 the screen gave 8.057%. Cc1cc(S(N)(=O)=O)c(C)o1 read 12.46%. Result for Cc1nc(C(C)(C)NCCCO)sc1C was -14.65%. COc1cc(C)c([S+](C)[O-])cc1OC (stereo unspecified) read 0.459%. c1cc(NCC2CCCO2)ccn1 (stereo unspecified) gave 6.724%. O=C(NCc1cccc(N2CCOC2=O)c1)N1CCC1 read 3.952%. For CCCC(=O)Nc1cccc(CCC(=O)N(C)C)c1 the result was -0.1696%.

Result for CC(N)c1ccc(-n2cc(C(N)=O)nn2)cc1 (stereo unspecified) was 0.8085%. For CC(C)(C)CC(=O)NC1(C)CCS(=O)(=O)C1 (stereo unspecified) the result was -11.97%. For CCc1ccc(CN2CCCCC2C(=O)NC)nc1 (stereo unspecified) the result was 16.18%. For CCc1nn(C)c(CC)c1S(=O)(=O)N(C)CCCN the result was 8.905%. For NCC(N)c1ccc2c(c1)OCCO2 (stereo unspecified) the result was 9.172%. With COCCNC(C)(C)CO the screen gave 15.94%. COc1cccc(OC(C)CN)c1 (stereo unspecified) gave -2.305%. With CN1CCCC2(CCN(C(=O)N3CCCC3)C2)C1=O (stereo unspecified) the screen gave 12.38%.

N#Cc1cc(N2CCNCC2)ccn1 read 7.126%. Result for CN(C)C(=O)N1CCN(C(=O)CC2CCNCC2)CC1 was -0.6824%. Cc1nnsc1C(=O)Nc1ccccn1 gave 2.586%. Result for COC(=O)NC1CCNCC1 was 3.78%. For COCC(NC(=O)c1ccsc1)C(N)=O (stereo unspecified) the result was -9.805%. For Cc1n[nH]c(C)c1NC(=O)C(C)CN (stereo unspecified) the result was -7.699%. For COc1cc(CNC2CCCN(C)C2)cc2c1OCO2 (stereo unspecified) the result was -35.08%. Result for CC(C)CCOC1CCN(C(=O)c2ccncc2)C1 (stereo unspecified) was -2.364%.

With Cc1nonc1CC(=O)N1CCCC(c2ncc[nH]2)C1 (stereo unspecified) the screen gave -5.306%. COCCC(=O)Nc1ccc(OCC(F)(F)F)nc1 gave -12.74%. CS(=O)(=O)NCCCc1cnc2ccccc2c1 read -12.98%. Result for Nc1c[nH]nc1C(=O)NCc1cccc(Cl)c1 was 95.75%. For CCc1ccc(CN2Cc3cnn(CCO)c3C2)nc1 the result was 0.3944%. For CO[C@H]1CN(C(=O)CCc2cccnc2)CC[C@H]1N the result was 0.2057%. CN1CCN(C2CCCCN(C(=O)C(C)(C)C)C2)CC1 (stereo unspecified) gave -7.89%. With CNc1cc(C(=O)NCc2csc(N(C)C)n2)ccn1 the screen gave -4.607%.

With COC(=O)c1cnc(C)c(OC)c1 the screen gave -7.167%. For CCOCCC(=O)Nc1ccc2c(c1)C(=O)N(C)C2=O the result was -2.687%. CNC(=O)NC(=O)CCCN(C)Cc1ccsc1 gave -18.35%. With CC(=O)NCCNC(=O)CN1CCNC(=O)C1C (stereo unspecified) the screen gave -18.99%. C[C@H](N)c1cccs1 read 7.763%. With COc1cc(C(C)=O)ccc1S(C)(=O)=O the screen gave -24.26%. CCSCCNC(=O)c1ccc(-n2ccnc2)cc1 gave 0.1028%. With CCN(C(=O)CSC(F)(F)F)C1CCS(=O)(=O)C1 (stereo unspecified) the screen gave -12.24%.

For CNCc1occc1C the result was -1.662%. CC(=O)N1CCC(C(=O)N(C)Cc2cscn2)CC1 read 31.37%. CC(=O)NCCNC(=O)NC(C)c1ccc(C)o1 (stereo unspecified) read -1.971%. CCC(N)(CC)CNS(=O)(=O)N1CCCCCC1 read 6.856%. CC(=O)c1csc(C(=O)NCCN(C)C)c1 gave -0.4871%.

Repeated from the top, 3 entries:

| Compound | Percent Effect |
|---|---|
| `Cc1csc(NC(=O)CSc2nccn2C)n1` | 6.184% |
| `CN(C)c1cc(CNC(=O)CCc2ccco2)ccn1` | 19.9% |
| `CCS(=O)(=O)c1cccc(CN)c1` | 21.69% |

Data taken from ChEMBL document CHEMBL3988442, “University of Dundee, Small-Polar-MMV Screening Library” (2021).